PMC8695909

Amino acid sequences for entries named in this document (tags omitted).
UniProt O15169: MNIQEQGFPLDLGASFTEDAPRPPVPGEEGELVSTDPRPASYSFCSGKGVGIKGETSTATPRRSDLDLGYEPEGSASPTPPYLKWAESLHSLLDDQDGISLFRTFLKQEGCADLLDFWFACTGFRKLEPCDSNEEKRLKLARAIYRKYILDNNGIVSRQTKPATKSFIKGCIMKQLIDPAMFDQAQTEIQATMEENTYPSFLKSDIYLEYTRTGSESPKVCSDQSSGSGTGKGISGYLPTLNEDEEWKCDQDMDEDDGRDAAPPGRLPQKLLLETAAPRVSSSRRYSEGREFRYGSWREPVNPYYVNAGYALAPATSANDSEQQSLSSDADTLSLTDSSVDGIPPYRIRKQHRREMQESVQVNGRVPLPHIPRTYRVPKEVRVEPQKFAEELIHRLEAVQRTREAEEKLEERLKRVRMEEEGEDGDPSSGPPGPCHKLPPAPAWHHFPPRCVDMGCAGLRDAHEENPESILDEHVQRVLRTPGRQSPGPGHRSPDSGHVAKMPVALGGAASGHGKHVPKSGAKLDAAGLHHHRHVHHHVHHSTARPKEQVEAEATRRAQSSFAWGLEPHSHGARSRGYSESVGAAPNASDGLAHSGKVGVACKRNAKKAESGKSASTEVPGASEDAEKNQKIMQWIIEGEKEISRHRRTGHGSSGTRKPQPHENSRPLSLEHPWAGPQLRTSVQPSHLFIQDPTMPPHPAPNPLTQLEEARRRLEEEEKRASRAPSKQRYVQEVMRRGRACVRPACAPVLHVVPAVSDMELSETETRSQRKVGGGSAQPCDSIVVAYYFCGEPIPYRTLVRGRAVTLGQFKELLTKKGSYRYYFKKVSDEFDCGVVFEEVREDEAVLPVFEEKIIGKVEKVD

Biological target: T1, TRIM54 (Flag-tagged, expressed from pCDH-CMV-MCS-3Flag-EF1-CopGFP-T2A-Puro) (human) (UniProt Q9BYV2)
T1 sequence: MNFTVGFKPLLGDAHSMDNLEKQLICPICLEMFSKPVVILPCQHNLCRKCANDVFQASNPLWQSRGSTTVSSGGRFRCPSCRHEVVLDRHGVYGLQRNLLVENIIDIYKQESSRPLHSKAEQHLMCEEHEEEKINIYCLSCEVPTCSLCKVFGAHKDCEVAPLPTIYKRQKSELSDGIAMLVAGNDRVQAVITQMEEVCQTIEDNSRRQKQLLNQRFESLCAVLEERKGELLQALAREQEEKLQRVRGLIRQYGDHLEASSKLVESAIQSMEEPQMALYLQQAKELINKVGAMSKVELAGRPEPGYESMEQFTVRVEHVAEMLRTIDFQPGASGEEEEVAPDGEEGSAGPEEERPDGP
Experiment: affinity purification with mass spectrometry; lysates from 3 × 10^7 transfected cells incubated with myc- or Flag-conjugated agarose beads overnight at 4°C; washed six times; eluted with 1 M glycine pH 3.0; specific bands cut from a Coomassie-stained SDS gel; LC-MS/MS

Substance: Axis inhibition protein 1 (Axin1) (from UniProt O15169 1-862)
- binding: binds

No constants are given. Whether binding was seen depends on the method and setting. In cells and extracts the contact can be indirect. Here binding means that the protein was enriched with, or labelled near, the bait; the list need not be complete. Tags and fused reporters may be left off the sequences shown.
